Measured values as given in publication PMC9884267.
No constants are given. Whether binding was seen depends on the method and setting. Binding seen in cells or lysates may run through a third protein. A yes stands for co-enrichment or nearness to the bait. Other partners may have been found.

Protein sequences, listed by entry. Tags and fused reporters are not part of them.
UniProt Q9NP66: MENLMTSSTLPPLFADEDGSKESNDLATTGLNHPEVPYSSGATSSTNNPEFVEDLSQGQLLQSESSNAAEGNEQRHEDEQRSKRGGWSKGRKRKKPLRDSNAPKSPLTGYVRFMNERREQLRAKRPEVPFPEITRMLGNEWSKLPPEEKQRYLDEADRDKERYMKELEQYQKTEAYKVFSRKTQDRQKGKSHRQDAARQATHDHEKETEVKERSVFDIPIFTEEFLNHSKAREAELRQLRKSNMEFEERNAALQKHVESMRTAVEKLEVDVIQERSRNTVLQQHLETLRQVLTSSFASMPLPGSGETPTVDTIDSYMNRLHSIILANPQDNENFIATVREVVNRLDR
UniProt Q96BD5: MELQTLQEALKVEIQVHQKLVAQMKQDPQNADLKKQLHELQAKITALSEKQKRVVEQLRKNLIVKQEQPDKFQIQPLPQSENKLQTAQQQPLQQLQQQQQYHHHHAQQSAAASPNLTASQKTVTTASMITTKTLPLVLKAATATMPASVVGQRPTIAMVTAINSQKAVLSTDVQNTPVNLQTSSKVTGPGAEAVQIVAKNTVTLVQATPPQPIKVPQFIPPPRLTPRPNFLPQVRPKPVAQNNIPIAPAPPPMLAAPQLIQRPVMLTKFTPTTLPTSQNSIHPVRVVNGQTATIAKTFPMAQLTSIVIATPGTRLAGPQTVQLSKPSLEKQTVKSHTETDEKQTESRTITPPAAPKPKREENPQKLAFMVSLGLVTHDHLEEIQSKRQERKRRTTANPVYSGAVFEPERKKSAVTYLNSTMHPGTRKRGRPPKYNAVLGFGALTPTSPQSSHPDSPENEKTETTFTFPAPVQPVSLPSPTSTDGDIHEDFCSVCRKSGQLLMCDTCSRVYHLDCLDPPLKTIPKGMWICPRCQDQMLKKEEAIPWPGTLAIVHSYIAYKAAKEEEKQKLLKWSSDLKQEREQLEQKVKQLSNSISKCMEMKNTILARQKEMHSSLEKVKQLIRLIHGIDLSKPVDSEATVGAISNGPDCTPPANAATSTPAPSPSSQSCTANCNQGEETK
UniProt Q9UKL0: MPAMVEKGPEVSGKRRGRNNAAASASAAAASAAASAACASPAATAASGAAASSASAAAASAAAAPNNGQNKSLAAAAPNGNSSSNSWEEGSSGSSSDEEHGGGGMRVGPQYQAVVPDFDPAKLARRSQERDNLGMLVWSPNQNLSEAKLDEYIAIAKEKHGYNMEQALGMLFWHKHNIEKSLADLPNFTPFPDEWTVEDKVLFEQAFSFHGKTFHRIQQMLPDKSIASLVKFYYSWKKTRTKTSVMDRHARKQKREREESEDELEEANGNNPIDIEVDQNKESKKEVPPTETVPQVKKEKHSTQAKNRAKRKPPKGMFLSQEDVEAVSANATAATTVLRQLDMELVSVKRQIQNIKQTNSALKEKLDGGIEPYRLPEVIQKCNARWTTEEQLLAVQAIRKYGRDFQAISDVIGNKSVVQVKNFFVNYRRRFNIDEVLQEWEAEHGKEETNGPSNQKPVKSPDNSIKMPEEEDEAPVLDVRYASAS
UniProt Q7Z5J4: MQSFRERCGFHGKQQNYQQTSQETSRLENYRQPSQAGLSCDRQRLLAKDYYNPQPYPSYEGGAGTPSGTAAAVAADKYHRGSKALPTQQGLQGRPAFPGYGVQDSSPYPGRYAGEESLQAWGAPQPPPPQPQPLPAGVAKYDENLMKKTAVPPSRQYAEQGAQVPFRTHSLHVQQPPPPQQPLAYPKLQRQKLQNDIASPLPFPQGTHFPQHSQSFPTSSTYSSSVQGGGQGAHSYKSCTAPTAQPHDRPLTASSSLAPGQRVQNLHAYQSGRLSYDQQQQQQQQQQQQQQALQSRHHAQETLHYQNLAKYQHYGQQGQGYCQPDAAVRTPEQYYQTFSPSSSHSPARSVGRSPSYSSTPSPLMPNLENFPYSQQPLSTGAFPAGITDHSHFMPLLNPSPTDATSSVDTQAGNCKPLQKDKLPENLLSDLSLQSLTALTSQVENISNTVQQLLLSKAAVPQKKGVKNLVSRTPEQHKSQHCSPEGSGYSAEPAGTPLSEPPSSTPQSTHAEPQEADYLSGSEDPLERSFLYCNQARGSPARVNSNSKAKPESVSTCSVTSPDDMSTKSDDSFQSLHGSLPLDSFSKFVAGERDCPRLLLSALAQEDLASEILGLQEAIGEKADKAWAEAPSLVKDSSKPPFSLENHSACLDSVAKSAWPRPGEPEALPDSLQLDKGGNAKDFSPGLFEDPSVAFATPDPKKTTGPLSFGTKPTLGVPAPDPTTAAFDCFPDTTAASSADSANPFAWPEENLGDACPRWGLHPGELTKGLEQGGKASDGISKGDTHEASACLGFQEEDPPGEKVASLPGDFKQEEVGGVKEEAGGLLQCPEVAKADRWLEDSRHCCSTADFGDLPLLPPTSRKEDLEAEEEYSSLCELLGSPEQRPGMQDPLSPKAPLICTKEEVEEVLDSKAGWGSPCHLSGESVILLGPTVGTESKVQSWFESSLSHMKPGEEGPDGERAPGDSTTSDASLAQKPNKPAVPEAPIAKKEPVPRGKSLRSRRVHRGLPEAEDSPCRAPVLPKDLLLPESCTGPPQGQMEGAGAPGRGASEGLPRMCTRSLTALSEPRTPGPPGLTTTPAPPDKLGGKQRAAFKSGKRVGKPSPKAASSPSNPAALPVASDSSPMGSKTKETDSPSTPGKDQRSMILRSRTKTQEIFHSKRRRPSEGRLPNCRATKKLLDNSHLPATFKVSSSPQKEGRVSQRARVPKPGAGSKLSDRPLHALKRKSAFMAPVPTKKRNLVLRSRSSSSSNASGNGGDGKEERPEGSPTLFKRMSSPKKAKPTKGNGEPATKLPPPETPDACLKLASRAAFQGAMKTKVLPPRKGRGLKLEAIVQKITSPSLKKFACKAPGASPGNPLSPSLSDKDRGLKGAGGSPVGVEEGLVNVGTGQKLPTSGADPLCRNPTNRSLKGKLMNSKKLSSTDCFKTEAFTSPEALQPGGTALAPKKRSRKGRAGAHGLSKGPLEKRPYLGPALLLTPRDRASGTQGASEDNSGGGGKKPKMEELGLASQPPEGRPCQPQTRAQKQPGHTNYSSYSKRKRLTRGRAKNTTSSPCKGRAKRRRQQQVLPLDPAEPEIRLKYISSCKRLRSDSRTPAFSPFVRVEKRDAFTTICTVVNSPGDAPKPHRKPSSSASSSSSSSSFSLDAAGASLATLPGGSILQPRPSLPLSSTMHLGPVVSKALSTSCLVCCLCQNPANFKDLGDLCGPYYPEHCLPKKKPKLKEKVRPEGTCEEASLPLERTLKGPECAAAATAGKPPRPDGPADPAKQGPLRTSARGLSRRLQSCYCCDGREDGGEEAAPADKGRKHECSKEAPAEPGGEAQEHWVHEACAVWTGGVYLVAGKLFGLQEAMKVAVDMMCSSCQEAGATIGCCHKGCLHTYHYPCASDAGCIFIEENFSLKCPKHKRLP
UniProt Q9UGU0: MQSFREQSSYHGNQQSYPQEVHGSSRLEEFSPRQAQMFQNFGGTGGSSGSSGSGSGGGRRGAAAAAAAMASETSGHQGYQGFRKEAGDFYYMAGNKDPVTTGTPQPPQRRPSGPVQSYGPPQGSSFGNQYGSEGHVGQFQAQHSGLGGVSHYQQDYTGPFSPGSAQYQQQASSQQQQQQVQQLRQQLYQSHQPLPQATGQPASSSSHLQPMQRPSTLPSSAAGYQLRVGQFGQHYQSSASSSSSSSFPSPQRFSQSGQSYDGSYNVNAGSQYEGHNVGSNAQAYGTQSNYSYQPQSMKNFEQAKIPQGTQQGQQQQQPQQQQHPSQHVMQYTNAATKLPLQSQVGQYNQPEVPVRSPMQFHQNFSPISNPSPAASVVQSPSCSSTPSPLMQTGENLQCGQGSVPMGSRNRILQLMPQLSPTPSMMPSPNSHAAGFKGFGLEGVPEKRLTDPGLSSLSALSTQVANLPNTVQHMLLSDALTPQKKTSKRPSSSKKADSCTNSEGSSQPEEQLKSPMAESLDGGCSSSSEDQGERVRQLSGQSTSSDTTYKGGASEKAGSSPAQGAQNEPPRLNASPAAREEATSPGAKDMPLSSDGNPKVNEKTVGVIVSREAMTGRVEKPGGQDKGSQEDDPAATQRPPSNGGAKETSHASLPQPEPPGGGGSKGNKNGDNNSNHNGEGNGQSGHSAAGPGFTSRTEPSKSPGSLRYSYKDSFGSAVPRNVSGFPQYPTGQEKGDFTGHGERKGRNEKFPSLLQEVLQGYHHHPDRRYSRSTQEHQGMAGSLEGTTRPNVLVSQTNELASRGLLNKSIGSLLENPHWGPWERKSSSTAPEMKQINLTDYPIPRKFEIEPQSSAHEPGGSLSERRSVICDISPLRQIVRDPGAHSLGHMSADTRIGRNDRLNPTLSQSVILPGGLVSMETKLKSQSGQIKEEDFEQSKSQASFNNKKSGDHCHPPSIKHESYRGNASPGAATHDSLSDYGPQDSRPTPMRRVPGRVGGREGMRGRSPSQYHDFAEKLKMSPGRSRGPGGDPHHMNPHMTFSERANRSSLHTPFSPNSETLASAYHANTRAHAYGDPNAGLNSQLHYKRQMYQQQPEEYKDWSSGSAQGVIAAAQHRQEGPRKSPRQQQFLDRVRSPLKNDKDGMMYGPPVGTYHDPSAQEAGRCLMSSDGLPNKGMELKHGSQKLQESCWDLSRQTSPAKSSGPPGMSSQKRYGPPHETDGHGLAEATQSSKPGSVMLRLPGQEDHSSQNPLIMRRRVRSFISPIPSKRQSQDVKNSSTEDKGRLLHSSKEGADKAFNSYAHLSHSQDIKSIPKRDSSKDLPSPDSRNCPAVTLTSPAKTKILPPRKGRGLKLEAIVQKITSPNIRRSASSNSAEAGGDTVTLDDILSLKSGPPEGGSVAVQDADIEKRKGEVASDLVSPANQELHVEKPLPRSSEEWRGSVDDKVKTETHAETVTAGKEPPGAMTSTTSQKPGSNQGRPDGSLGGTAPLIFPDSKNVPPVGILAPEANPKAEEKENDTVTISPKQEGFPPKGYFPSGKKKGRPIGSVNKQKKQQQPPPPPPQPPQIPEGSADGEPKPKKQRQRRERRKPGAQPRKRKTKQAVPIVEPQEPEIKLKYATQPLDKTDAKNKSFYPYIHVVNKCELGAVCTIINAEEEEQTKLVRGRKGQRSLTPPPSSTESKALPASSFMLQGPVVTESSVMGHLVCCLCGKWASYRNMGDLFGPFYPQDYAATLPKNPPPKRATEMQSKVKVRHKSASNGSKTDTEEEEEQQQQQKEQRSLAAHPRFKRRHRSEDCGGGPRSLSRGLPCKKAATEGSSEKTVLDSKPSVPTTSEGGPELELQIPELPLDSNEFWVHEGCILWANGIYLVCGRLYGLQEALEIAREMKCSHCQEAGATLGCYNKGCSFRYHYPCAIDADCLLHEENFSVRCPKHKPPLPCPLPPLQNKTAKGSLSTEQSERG

B1: L3MBTL3 (protein, UniProt Q96JM7 1-780)
chain: MTESASSTSGQEFDVFSVMDWKDGVGTLPGSDLKFRVNEFGALEVITDENEMENVKKATATTTWMVPTAQEAPTSPPSSRPVFPPAYWTSPPGCPTVFSEKTGMPFRLKDPVKVEGLQFCENCCQYGNVDECLSGGNYCSQNCARHIKDKDQKEERDVEEDNEEEDPKCSRKKKPKLSLKADTKEDGEERDDEMENKQDVRILRGSQRARRKRRGDSAVLKQGLPPKGKKAWCWASYLEEEKAVAVPAKLFKEHQSFPYNKNGFKVGMKLEGVDPEHQSVYCVLTVAEVCGYRIKLHFDGYSDCYDFWVNADALDIHPVGWCEKTGHKLHPPKGYKEEEFNWQTYLKTCKAQAAPKSLFENQNITVIPSGFRVGMKLEAVDKKNPSFICVATVTDMVDNRFLVHFDNWDESYDYWCEASSPHIHPVGWCKEHRRTLITPPGYPNVKHFSWDKYLEETNSLPAPARAFKVKPPHGFQKKMKLEVVDKRNPMFIRVATVADTDDHRVKVHFDGWNNCYDYWIDADSPDIHPVGWCSKTGHPLQPPLSPLELMEASEHGGCSTPGCKGIGHFKRARHLGPHSAANCPYSEINLNKDRIFPDRLSGEMPPASPSFPRNKRTDANESSSSPEIRDQHADDVKEDFEERTESEMRTSHEARGAREEPTVQQAQRRSAVFLSFKSPIPCLPLRWEQQSKLLPTVAGIPASKVSKWSTDEVSEFIQSLPGCEEHGKVFKDEQIDGEAFLLMTQTDIVKIMSIKLGPALKIFNSILMFKAAEKNSHNEL
B2: zinc finger protein ZNF512B (protein, UniProt Q96KM6 1-892)
chain: MTDPFCVGGRRLPGSSKSGPGKDGSRKEVRLPMLHDPPKMGMPVVRGGQTVPGQAPLCFDPGSPASDKTEGKKKGRPKAENQALRDIPLSLMNDWKDEFKAHSRVKCPNSGCWLEFPSIYGLKYHYQRCQGGAISDRLAFPCPFCEAAFTSKTQLEKHRIWNHMDRPLPASKPGPISRPVTISRPVGVSKPIGVSKPVTIGKPVGVSKPIGISKPVSVGRPMPVTKAIPVTRPVPVTKPVTVSRPMPVTKAMPVTKPITVTKSVPVTKPVPVTKPITVTKLVTVTKPVPVTKPVTVSRPIVVSKPVTVSRPIAISRHTPPCKMVLLTRSENKAPRATGRNSGKKRAADSLDTCPIPPKQARPENGEYGPSSMGQSSAFQLSADTSSGSLSPGSRPSGGMEALKAAGPASPPEEDPERTKHRRKQKTPKKFTGEQPSISGTFGLKGLVKAEDKARVHRSKKQEGPGPEDARKKVPAAPITVSKEAPAPVAHPAPGGPEEQWQRAIHERGEAVCPTCNVVTRKTLVGLKKHMEVCQKLQDALKCQHCRKQFKSKAGLNYHTMAEHSAKPSDAEASEGGEQEERERLRKVLKQMGRLRCPQEGCGAAFSSLMGYQYHQRRCGKPPCEVDSPSFPCTHCGKTYRSKAGHDYHVRSEHTAPPPEEPTDKSPEAEDPLGVERTPSGRVRRTSAQVAVFHLQEIAEDELARDWTKRRMKDDLVPETARLNYTRPGLPTLNPQLLEAWKNEVKEKGHVNCPNDCCEAIYSSVSGLKAHLASCSKGAHLAGKYRCLLCPKEFSSESGVKYHILKTHAENWFRTSADPPPKHRSQDSLVPKKEKKKNLAGGKKRGRKPKERTPEEPVAKLPPRRDDWPPGCRDKGARGSTGRKVGVSKAPEK
B3: GSE1 (protein, UniProt Q14687 1-1217)
chain: MKGMSHEPKSPSLGMLSTATRTTATVNPLTPSPLNGALVPSGSPATSSALSAQAAPSSSFAAALRKLAKQAEEPRGSSLSSESSPVSSPATNHSSPASTPKRVPMGPIIVPPGGHSVPSTPPVVTIAPTKTVNGVWRSESRQDAGSRSSSGGRERLIVEPPLPQEKAGGPAIPSHLLSTPYPFGLSPSSVVQDSRFPPLNLQRPVHHVVPPSTVTEDYLRSFRPYHTTDDLRMSSLPPLGLDPATAAAYYHPSYLAPHPFPHPAFRMDDSYCLSALRSPFYPIPTPGSLPPLHPSAMHLHLSGVRYPPELSHSSLAALHSERMSGLSAERLQMDEELRREREREREREREREADREREKEREREREKEREQEKEREREKERERELERQREQRAREKELLAAKALEPSFLPVAELHGLRGHATEERGKPSEQLTPTRAEKLKDAGLQAPKPVQHPLHPVPTPHHTVPSLISNHGIFSLPSSSAATALLIQRTNEEEKWLARQRRLRQEKEDRQSQVSEFRQQVLEQHLDMGRPPVPAEAEHRPESTTRPGPNRHEPGGRDPPQHFGGPPPLISPKPQLHAAPTALWNPVSLMDNTLETRRAESHSLHSHPAAFEPSRQAAVPLVKVERVFCPEKAEEGPRKREPAPLDKYQPPPPPPREGGSLEHQPFLPGPGPFLAELEKSTQTILGQQRASLPQAATFGELSGPLKPGSPYRPPVPRAPDPAYIYDEFLQQRRRLVSKLDLEERRRREAQEKGYYYDLDDSYDESDEEEVRAHLRCVAEQPPLKLDTSSEKLEFLQLFGLTTQQQKEELVAQKRRKRRRMLRERSPSPPTIQSKRQTPSPRLALSTRYSPDEMNNSPNFEEKKKFLTIFNLTHISAEKRKDKERLVEMLRAMKQKALSAAVADSLTNSPRDSPAVSLSEPATQQASLDVEKPVGVAASLSDIPKAAEPGKLEQVRPQELSRVQELAPASGEKARLSEAPGGKKSLSMLHYIRGAAPKDIPVPLSHSTNGKSKPWEPFVAEEFAHQFHESVLQSTQKALQKHKGSVAVLSAEQNHKVDTSVHYNIPELQSSSRAPPPQHNGQQEPPTARKGPPTQELDRDSEEEEEEDDEDGEDEEEVPKRKWQGIEAVFEAYQEHIEEQNLERQVLQTQCRRLEARHYSLSLTAEQLSHSVAELRSQKQKMVSERERLQAELDHLRKCLALPAMHWPRGYLKGYPR
B4: HMG20B (protein, UniProt Q9P0W2 1-317)
chain: MSHGPKQPGAAAAPAGGKAPGQHGGFVVTVKQERGEGPRAGEKGSHEEEPVKKRGWPKGKKRKKILPNGPKAPVTGYVRFLNERREQIRTRHPDLPFPEITKMLGAEWSKLQPTEKQRYLDEAEREKQQYMKELRAYQQSEAYKMCTEKIQEKKIKKEDSSSGLMNTLLNGHKGGDCDGFSTFDVPIFTEEFLDQNKAREAELRRLRKMNVAFEEQNAVLQRHTQSMSSARERLEQELALEERRTLALQQQLQAVRQALTASFASLPVPGTGETPTLGTLDFYMARLHGAIERDPAQHEKLIVRIKEILAQVASEHL
B5: BEND3 (protein, UniProt Q5T5X7 1-828)
chain: MNSTEFTEDVEEVLKSITVKVETEAEDAALDCSVNSRTSEKHSVDSVLTALQDSSKRKQLVSDGLLDSVPGVKRRRLIPEALLAGMRNRENSSPCQGNGEQAGRGRSLGNVWPGEEEPCNDATTPSYKKPLYGISHKIMEKKNPPSGDLLNVYELFEKANASNSPSSLRLLNEPQKRDCGSTGAGTDNDPNIYFLIQKMFYMLNTLTSNMSQLHSKVDLLSLEVSRIKKQVSPTEMVAKFQPPPEYQLTAAELKQIVDQSLSGGDLACRLLVQLFPELFSDVDFSRGCSACGFAAKRKLESLHLQLIRNYVEVYYPSVKDTAVWQAECLPQLNDFFSRFWAQREMEDSQPSGQVASFFEAEQVDPGHFLDNKDQEEALSLDRSSTIASDHVVDTQDLTEFLDEASSPGEFAVFLLHRLFPELFDHRKLGEQYSCYGDGGKQELDPQRLQIIRNYTEIYFPDMQEEEAWLQQCAQRINDELEGLGLDAGSEGDPPRDDCYDSSSLPDDISVVKVEDSFEGERPGRRSKKIWLVPIDFDKLEIPQPDFEVPGADCLLSKEQLRSIYESSLSIGNFASRLLVHLFPELFTHENLRKQYNCSGSLGKKQLDPSRIKLIRHYVQLLYPRAKNDRVWTLEFVGKLDERCRRRDTEQRRSYQQQRKVHVPGPECRDLTSYAINPERFREEFEGPPLPPERSSKDFCKIPLDELVVPSPDFPVPSPYLLSDKEVREIVQQSLSVGNFAARLLVRLFPELFTAENLRLQYNHSGACNKKQLDPTRLRLIRHYVEAVYPVEKMEEVWHYECIPSIDERCRRPNRKKCDILKKAKKVEK

These molecules were tested against GFP-HMG20A (High Mobility Group 20A), stably expressed in HeLa Kyoto cells (human) (UniProt Q9NP66) (assay: affinity purification with mass spectrometry; GFP-HMG20A mononucleosome IP from HeLaK cells with GFP-TRAP beads, on-bead tryptic digestion, label-free quantitative MS/MS against GFP control; two biological replicates).

binding, binds:
PHF21A (from UniProt Q96BD5 1-680)
RCOR1 (from UniProt Q9UKL0 1-485)
RCOR3 (from UniProt Q9P2K3 1-495)
Retinoic Acid Induced 1 (RAI1) (from UniProt Q7Z5J4 1-1906)
Transcription Factor 20 (TCF20) (from UniProt Q9UGU0 1-1960)
B1
B2
B3
B4
B5
